These are yes or no findings as the source states them, for the method shown. Binding seen in cells or lysates may run through a third protein. Here binding means that the protein was enriched with, or labelled near, the bait; the list need not be complete. For some of these results: A no says only that the protein was not detected with the bait.
T1: Halo-SIN3A (UniProt Q96ST3)
T1 sequence: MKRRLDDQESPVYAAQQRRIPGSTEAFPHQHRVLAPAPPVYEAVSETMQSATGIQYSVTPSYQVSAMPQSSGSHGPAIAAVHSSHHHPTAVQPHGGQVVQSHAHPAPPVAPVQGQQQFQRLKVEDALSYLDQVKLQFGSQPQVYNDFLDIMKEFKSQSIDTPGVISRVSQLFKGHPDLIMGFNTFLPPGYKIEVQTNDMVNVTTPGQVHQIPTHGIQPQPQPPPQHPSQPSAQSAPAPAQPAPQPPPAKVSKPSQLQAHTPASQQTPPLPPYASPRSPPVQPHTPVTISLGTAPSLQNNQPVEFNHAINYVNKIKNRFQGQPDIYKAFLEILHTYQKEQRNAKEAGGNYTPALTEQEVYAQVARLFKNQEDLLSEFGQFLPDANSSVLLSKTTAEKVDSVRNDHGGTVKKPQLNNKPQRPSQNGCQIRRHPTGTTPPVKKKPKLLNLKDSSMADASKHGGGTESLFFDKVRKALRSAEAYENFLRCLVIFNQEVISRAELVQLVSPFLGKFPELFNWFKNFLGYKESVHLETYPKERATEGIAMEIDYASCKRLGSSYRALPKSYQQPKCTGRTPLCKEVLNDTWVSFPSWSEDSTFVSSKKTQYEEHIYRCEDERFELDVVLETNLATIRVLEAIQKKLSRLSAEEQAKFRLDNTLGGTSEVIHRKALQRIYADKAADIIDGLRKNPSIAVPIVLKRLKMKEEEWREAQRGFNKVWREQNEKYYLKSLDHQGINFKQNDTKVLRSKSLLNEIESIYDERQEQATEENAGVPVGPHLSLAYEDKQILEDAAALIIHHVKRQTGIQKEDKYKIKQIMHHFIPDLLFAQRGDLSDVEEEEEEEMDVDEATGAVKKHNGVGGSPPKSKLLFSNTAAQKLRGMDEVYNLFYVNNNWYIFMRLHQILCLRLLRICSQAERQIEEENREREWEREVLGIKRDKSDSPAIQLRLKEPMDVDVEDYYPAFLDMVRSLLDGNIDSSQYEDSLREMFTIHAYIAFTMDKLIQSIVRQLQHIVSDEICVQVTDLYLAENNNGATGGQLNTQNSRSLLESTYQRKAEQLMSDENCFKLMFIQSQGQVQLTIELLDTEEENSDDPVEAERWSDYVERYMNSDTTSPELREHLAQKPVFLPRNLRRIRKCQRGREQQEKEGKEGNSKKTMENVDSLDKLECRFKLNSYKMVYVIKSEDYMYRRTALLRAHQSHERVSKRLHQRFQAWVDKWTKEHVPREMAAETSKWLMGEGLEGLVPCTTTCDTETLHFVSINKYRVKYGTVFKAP

B1: ING1 (endogenous) (protein, UniProt Q9UK53 1-422)
chain: MSFVECPYHSPAERLVAEADEGGPSAITGMGLCFRCLLFSFSGRSGVEGGRVDLNVFGSLGLQPWIGSSRCWGGPCSSALRCGWFSSWPPPSKSAIPIGGGSRGAGRVSRWPPPHWLEAWRVSPLPLSPLSPATFGRGFIAVAVIPGLWARGRGCSSDRLPRPAGPARRQFQAASLLTRGWGRAWPWKQILKELDECYERFSRETDGAQKRRMLHCVQRALIRSQELGDEKIQIVSQMVELVENRTRQVDSHVELFEAQQELGDTAGNSGKAGADRPKGEAAAQADKPNSKRSRRQRNNENRENASSNHDHDDGASGTPKEKKAKTSKKKKRSKAKAEREASPADLPIDPNEPTYCLCNQVSYGEMIGCDNDECPIEWFHFSCVGLNHKPKGKWYCPKCRGENEKTMDKALEKSKKERAYNR
B2: SAP130 (endogenous) (protein, UniProt Q9H0E3 1-1048)
chain: MGPPRHPQAGEIEAGGAGGGRRLQVEMSSQQFPRLGAPSTGLSQAPSQIANSGSAGLINPAATVNDESGRDSEVSAREHMSSSSSLQSREEKQEPVVVRPYPQVQMLSTHHAVASATPVAVTAPPAHLTPAVPLSFSEGLMKPPPKPTMPSRPIAPAPPSTLSLPPKVPGQVTVTMESSIPQASAIPVATISGQQGHPSNLHHIMTTNVQMSIIRSNAPGPPLHIGASHLPRGAAAAAVMSSSKVTTVLRPTSQLPNAATAQPAVQHIIHQPIQSRPPVTTSNAIPPAVVATVSATRAQSPVITTTAAHATDSALSRPTLSIQHPPSAAISIQRPAQSRDVTTRITLPSHPALGTPKQQLHTMAQKTIFSTGTPVAAATVAPILATNTIPSATTAGSVSHTQAPTSTIVTMTVPSHSSHATAVTTSNIPVAKVVPQQITHTSPRIQPDYPAERSSLIPISGHRASPNPVAMETRSDNRPSVPVQFQYFLPTYPPSAYPLAAHTYTPITSSVSTIRQYPVSAQAPNSAITAQTGVGVASTVHLNPMQLMTVDASHARHIQGIQPAPISTQGIQPAPIGTPGIQPAPLGTQGIHSATPINTQGLQPAPMGTQQPQPEGKTSAVVLADGATIVANPISNPFSAAPAATTVVQTHSQSASTNAPAQGSSPRPSILRKKPATDGAKPKSEIHVSMATPVTVSMETVSNQNNDQPTIAVPPTAQQPPPTIPTMIAAASPPSQPAVALSTIPGAVPITPPITTIAAAPPPSVTVGGSLSSVLGPPVPEIKVKEEVEPMDIMRPVSAVPPLATNTVSPSLALLANNLSMPTSDLPPGASPRKKPRKQQHVISTEEGDMMETNSTDDEKSTAKSLLVKAEKRKSPPKEYIDEEGVRYVPVRPRPPITLLRHYRNPWKAAYHHFQRYSDVRVKEEKKAMLQEIANQKGVSCRAQGWKVHLCAAQLLQLTNLEHDVYERLTNLQEGIIPKKKAATDDDLHRINELIQGNMQRCKLVMDQISEARDSMLKVLDHKDRVLKLLNKNGTVKKVSKLKRKEKV

Legend:
Test in all cases: affinity purification with mass spectrometry
[1] = target: Halo-SIN3A_Δ5
[2] = target: T1, Halo-SIN3A
[3] = target: Halo-SIN3A_Δ4
[4] = target: Halo-SIN3A_Δ6
[5] = target: Halo-SIN3A_Δ8
[6] = target: Halo-SIN3A_Δ7_968-1186
[7] = target: Halo-SIN3A_Δ3

| Binder | binding [1] | binding [2] | binding [3] | binding [4] | binding [5] | binding [6] | binding [7] |
| --- | --- | --- | --- | --- | --- | --- | --- |
| B1 | no binding | binds | no binding | no binding | no binding | no binding | – |
| B2 | – | – | – | – | – | – | no binding |

Source: publication doi:10.1101/2024.01.16.575949
